Measurements as given in PubChem BioAssay AID493014 (National Center for Advancing Translational Sciences (NCATS), 2011).
In all, about 340,000 compounds went through this assay and about 170 (0.05%) were called active. Inconclusive results, whose numbers are uncertain, are shown with a selection of clear calls. The call rests on the fitted dose curve; in most records, active means well fitted inhibition curve with a large enough effect in the signal ratio, with a control signal flat (not every such curve was filed as active); inconclusive means small, poorly fitted or top-dose-only effect, or effect the other way, or a change in a side signal; inactive means flat fitted curve, though single readings scatter; the % refers to the signal ratio. Potencies of inconclusive entries are doubtful fits and often do not repeat.

Test: qHTS Assay to Find Inhibitors of Chronic Active B-Cell Receptor Signaling;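 on activity change, negative = inhibition: plate controls were basal doxycycline-induced cells for no effect and cells given 10 µM MG132 for full effect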
Conditions: ABC-DLBCL IkBa-CBG/CBR reporter, luminescence ratio (green luciferase fused to IkBa over red control in TMD8 lymphoma cells), 4 h; activity change, negative = inhibition: at 46.1 µM (top of the series)
Method in brief: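 Cell line TMD8 (human ABC DLBCL), stably expressing tet-inducible CBG68-IkBa fusion and CBR; IMDM/0.5% FBS; cpd up to 46 uM; dox induction, 4 h, 37C/5% CO2; dual luminescence; green/red ratio; MG132 control.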
Potency means the concentration at half of the fitted maximal effect.

SMILES | activity change, negative = inhibition | Potency
Nc1ccc2cn[nH]c2c1 | inconclusive: -11.2% | 
Cn1c(=O)c2c(nc(SCCN3CCOCC3)n2Cc2ccccc2)n(C)c1=O | inconclusive: 15.2% | 
COc1ccc(/C=N/NC(=O)CSCC(=O)Nc2ccccc2)cc1 | inactive | 
COc1ccc(/C=N/NC(=O)c2nn(C)cc2Br)cc1CSCc1ccco1 |  | inconclusive: 1 µM [falling, partial curve, poor fit]
OC(COc1cccc2ccccc12)CN1CCN(c2ccc(Cl)cc2)CC1 (configuration not stated) | inactive | 
COc1ccc(NC(=O)CSc2ncn(-c3ccccc3)n2)cc1Cl | inactive | 
CCOc1ccccc1NC(=O)Nc1ccc(OC)nc1 | inconclusive: -14.1% | 
Cc1ccccc1Cn1c(=O)n(CCCC(=O)NCc2ccco2)c(=O)c2ccccc21 | inactive | 
NC(=O)c1ccccc1NC(=S)NC(=O)CCc1ccccc1 | inconclusive: -9.46% | 
CN(C)S(=O)(=O)N1CCC(Oc2cccc(C(=O)NCCC3=CCCCC3)c2)CC1 |  | inconclusive: 8.91 µM [falling, partial curve]
CCNC(=S)Nc1ccc2ncoc2c1 | inactive | 
COc1cccc(/C=C/C(=O)Nc2ccc(N3CCOCC3)cc2)c1OC | inactive | 
CC(C)C[C@H](NC(=O)c1[nH]cnc1C(=O)N[C@@H](C)c1ccccc1)C(=O)OC(C)(C)C | inconclusive: 4.15% | 
COc1cc(SC#N)ccc1N=Cc1c(C)[nH]n(-c2ccc(Cl)cc2)c1=O | inconclusive: 2.4% | 
Cc1ncoc1C(=O)Nc1ncc([N+](=O)[O-])s1 |  | inconclusive: 22.4 µM [falling, partial curve]
CCOC(=O)Cn1c(CN2CCN(C(c3ccccc3)c3ccccc3)CC2)nc2c1c(=O)n(C)c(=O)n2C | inactive | 
Cc1onc(-c2ccccc2Cl)c1C(=O)Nc1nnc(-c2ccc(F)cc2)s1 | inconclusive: 14.3% | 
CCOc1ccccc1OCCCC(=O)Nc1cccc(-n2cnnn2)c1C | inconclusive: -0.367% | 
Cc1ccc(NC(=O)c2ccc(NS(=O)(=O)/C=C/c3ccccc3)cc2)nc1 | inconclusive: -1.22% | 
CC(C)(C)c1ccc(-c2nn(CCC#N)cc2/C=N/O)cc1 |  | inconclusive: 17.8 µM [falling, single point]
O=C(Nc1ccc(Cl)cc1)OCc1cn(-c2ccccc2)nn1 | inconclusive: 10.3% | 
COc1ccccc1-n1nnnc1SCc1cc2c(cc1Br)OCO2 | inconclusive: -1.11% | 
CCc1ccc(NC(=O)c2ccc(S(=O)(=O)NCc3cccnc3)cc2)cc1 | inconclusive: 5.54% | 
COc1ccc([C@]2(C(C)C)ON(c3ccccc3C(F)(F)F)C2=O)cc1 | inconclusive: 2.35% | 
CCOc1ncccc1C(=O)Nc1ccc(Cl)c(S(=O)(=O)N2CCCC2)c1 | inconclusive: 5% | 
Cc1ccc(CN2CCN(Cc3cccc4nccnc34)CC2CCO)cc1 (configuration not stated) | inactive | 

SMILES | activity change, negative = inhibition | Potency
CCCCCCN1N=C(C)C(C(=O)c2ccc(Cl)cc2)C1=O (configuration not stated) |  | inconclusive: 14.1 µM [falling, partial curve, poor fit]
COCCNC(=S)N/N=C/c1ccc(-c2ccc([N+](=O)[O-])cc2)o1 |  | inconclusive: 1.78 µM [falling, full curve, poor fit]
CN1C(=O)c2ccc(C(=O)NCc3ccco3)cc2C1=O | inactive | 
OCC1(Cc2cccc(F)c2)CCN(Cc2ccc3cccc(F)c3n2)CC1 |  | inconclusive: 17.8 µM [falling, partial curve, poor fit]
CCOc1ccccc1C1c2[nH]c3ccccc3c2C[C@H]2C(=O)N(C3CCN(Cc4ccccc4)CC3)CC(=O)N12 (some centres not stated) | inconclusive: -13% | 
CCn1cc(CN2CCC(C(=O)Nc3ccc(Oc4ccccc4F)cc3)CC2)c(C)n1 | inactive | 
COc1ccc([N+](=O)[O-])cc1NCc1ccccc1 | inconclusive: 16% | 
CC(C)C(=O)Nc1nnc(CCN2CCCCC2)s1 | inconclusive: 11.3% | 
CCCN(CC(=O)Nc1ccccc1C)C(=O)C1CC(=O)N(c2ccc(CC)cc2)C1 (configuration not stated) | inconclusive: -0.736% | 
C/C(=N/NC(=O)c1ccoc1C)c1cccc(NC(=O)C2CC2)c1 |  | inconclusive: 29.1 µM [rising, single point]
Cc1ccc(NNC(=S)Nc2ccc(C(C)C)cc2)c(C)c1 |  | inconclusive: 2.06 µM [rising, full curve, poor fit]
Nc1nc(=S)c2ncn(C3OC(CO)C(O)C3O)c2[nH]1 (configuration not stated) |  | inconclusive: 28.2 µM [falling, single point]
O=C(Nc1ccc(Cl)cc1)N(C1=NCCC1)c1ccc(OC(F)F)cc1 | inconclusive: 1.46% | 
Cc1cccc(C(=O)Nc2ccc(N3CCN(c4ccc(C(F)(F)F)cn4)CC3)nc2)c1 | inconclusive: -15% | 
CCCc1nc2oc3ccccc3c(=O)c2c(=O)n1-c1ccc(C)cc1 |  | inconclusive: 5.62 µM [falling, partial curve]
COc1ccc(NC(=O)c2cc(SC)ccc2Cl)cc1 |  | inconclusive: 23.1 µM [falling, partial curve]
COC(=O)c1sccc1NC(=O)Nc1ccc(OC)cc1 |  | inconclusive: 4.47 µM [falling, partial curve]
CCN1C(=O)[C@H]2[C@@H](c3ccc(-c4ccc(OC)cc4)cc3)N3CCC[C@@]3(C(=O)OC)[C@H]2C1=O | inactive | 
C=CCNC(=S)NNc1nc2c(c(=O)[nH]1)C1(CCCCC1)Cc1ccccc1-2 | inconclusive: 17.6% | 
COc1ccc(CNCC(O)(c2ccccc2)c2ccc(Cl)cc2)cc1 (configuration not stated) |  | inconclusive: 29.1 µM [falling, partial curve, poor fit]
CCCCn1c(=N)c(S(=O)(=O)c2ccc(Br)cc2)cc2c(=O)n3cccc(C)c3nc21 | inactive | 
CCC(=O)NCCCNc1nc2c(C)cccc2cc1C#N | inconclusive: 2.67% | 
Cc1cccc(C)c1OCc1cc(C(=O)N2CCN(Cc3nccn3C)CC2)no1 | inconclusive: 7.68% | 
COc1cc(CN2CCNC(=O)C2CC(=O)NCCc2ncccc2C)cc(OC)c1 (configuration not stated) | inconclusive: -0.55% | 
O=C(CSc1nc2ccccc2o1)Nc1nccs1 |  | inconclusive: 35.5 µM [falling, single point]
CCOC(=O)c1ccccc1N/C=C/C(=O)c1cccs1 |  | inconclusive: 18.4 µM [falling, single point]

14 consecutive entries already listed:
SMILES | activity change, negative = inhibition | Potency
CCCN(CC(=O)Nc1ccccc1C)C(=O)C1CC(=O)N(c2ccc(CC)cc2)C1 (configuration not stated) | inconclusive: -0.736% | 
C/C(=N/NC(=O)c1ccoc1C)c1cccc(NC(=O)C2CC2)c1 |  | inconclusive: 29.1 µM [rising, single point]
Cc1ccc(NNC(=S)Nc2ccc(C(C)C)cc2)c(C)c1 |  | inconclusive: 2.06 µM [rising, full curve, poor fit]
Nc1nc(=S)c2ncn(C3OC(CO)C(O)C3O)c2[nH]1 (configuration not stated) |  | inconclusive: 28.2 µM [falling, single point]
O=C(Nc1ccc(Cl)cc1)N(C1=NCCC1)c1ccc(OC(F)F)cc1 | inconclusive: 1.46% | 
Cc1cccc(C(=O)Nc2ccc(N3CCN(c4ccc(C(F)(F)F)cn4)CC3)nc2)c1 | inconclusive: -15% | 
CCCc1nc2oc3ccccc3c(=O)c2c(=O)n1-c1ccc(C)cc1 |  | inconclusive: 5.62 µM [falling, partial curve]
COc1ccc(NC(=O)c2cc(SC)ccc2Cl)cc1 |  | inconclusive: 23.1 µM [falling, partial curve]
COC(=O)c1sccc1NC(=O)Nc1ccc(OC)cc1 |  | inconclusive: 4.47 µM [falling, partial curve]
CCN1C(=O)[C@H]2[C@@H](c3ccc(-c4ccc(OC)cc4)cc3)N3CCC[C@@]3(C(=O)OC)[C@H]2C1=O | inactive | 
C=CCNC(=S)NNc1nc2c(c(=O)[nH]1)C1(CCCCC1)Cc1ccccc1-2 | inconclusive: 17.6% | 
COc1ccc(CNCC(O)(c2ccccc2)c2ccc(Cl)cc2)cc1 (configuration not stated) |  | inconclusive: 29.1 µM [falling, partial curve, poor fit]
CCCCn1c(=N)c(S(=O)(=O)c2ccc(Br)cc2)cc2c(=O)n3cccc(C)c3nc21 | inactive | 
CCC(=O)NCCCNc1nc2c(C)cccc2cc1C#N | inconclusive: 2.67% | 

(list continues)

SMILES | activity change, negative = inhibition | Potency
O=c1c2cc(NC(=S)NC3CC3)ccc2nc2n1CCCCC2 | inactive | 
Cc1ccc(NC(=O)CSc2nc3ccccc3c3nc(CCn4c(C)nc5ccccc54)nn23)cc1F | inconclusive: 25.2% | 
O=C(Nc1ccc2c(c1)OCO2)Nc1ccc(Cl)cc1Cl | inconclusive: -8.67% | 
COc1cc2c(cc1OC)C(c1ccccc1)N(C(=O)CCl)CC2 (configuration not stated) |  | inconclusive: 5.01 µM [falling, single point]
C=CCn1c(Cc2cccs2)nnc1SCC(=O)c1ccc2ccccc2c1 |  | inconclusive: 6.51 µM [rising, full curve, poor fit]
COc1ccc(CN2CCC(Oc3ccc(C(=O)NCc4ccccn4)cc3)CC2)c(F)c1 | inconclusive: -5.52% | 
O=C(CSc1ccccc1)NCc1ccco1 | inconclusive: 7.45% | 
Cc1ccc(C#CC[N+]2(CC#Cc3ccc(C)cc3)CCCCC2)cc1 |  | inconclusive: 16.4 µM [falling, partial curve, poor fit]
COCCNC(=O)/C(C#N)=C/c1ccc(OCc2ccc(F)cc2)cc1 |  | inconclusive: 11.2 µM [falling, partial curve]
O=C(O)c1ccc2[nH]c3c(c2c1)CSCC3 |  | inconclusive: 20.6 µM [rising, partial curve, poor fit]
CCCc1nnc(NC(=O)c2nc(S(=O)(=O)Cc3ccc(C)cc3)ncc2Cl)s1 | inconclusive: 23.9% | 
Cc1ccccc1CN1CCN(C2CCC2)CC1CCO (configuration not stated) | inconclusive: -5.17% | 
Cc1ccc(C)c(N2CCN(C(=O)CCNC(=O)Cn3ccc4ccccc4c3=O)CC2)c1 | inactive | 
COc1cc(OC)c2c(-c3ccccc3)cc(=O)oc2c1C(CCN1CCCC(C)C1)c1ccc(N(C)C)cc1 (configuration not stated) |  | inconclusive: 22.4 µM [falling, single point]
Cc1ccc2c(C(=O)CN3CCC(C(N)=O)CC3)c(C)[nH]c2c1 | inconclusive: -1.28% | 
COc1cccc(-c2sc3ccc(OC)cc3c2-c2cc(F)cc(OC)c2)c1 |  | inconclusive: 14.6 µM [rising, partial curve, poor fit]
O=c1c2c3c(sc2nc2n1CCC2)CCCC3 | inconclusive: -2.08% | 
CCN(CC)CCCCN1c2ccccc2Sc2ccccc21 | inconclusive: -16.4% | 
Cc1cc(C)c2c(=O)n(CC(=O)NC3CCCC3)sc2n1 | inconclusive: -2.29% | 
COc1ccc(NC(=O)C(C/C=C(/C)Cl)C(C)=O)cc1 (configuration not stated) |  | inconclusive: 4.11 µM [falling, single point]
Nc1nc(N)c2c(ccc3nccc32)[nH]1 |  | inconclusive: 20 µM [falling, partial curve, poor fit]
CN(C)CCCN(C(=O)c1ccc(S(=O)(=O)N2CCCCC2)cc1)c1nc2cc3c(cc2s1)OCO3 | inconclusive: -6.96% | 
COc1cc(/C=C/C(=O)OCC(=O)NCCN2C(=O)CSC2=O)ccc1OC(F)F |  | inconclusive: 6.31 µM [falling, full curve, poor fit]
O=C(Nc1ccc(F)c(F)c1)C1CCCN(S(=O)(=O)c2cccc3nonc23)C1 (configuration not stated) | inconclusive: 0.99% | 
NC(=O)CSc1cn(Cc2ccccc2)c2ccccc12 |  | inconclusive: 10 µM [falling, partial curve, poor fit]
